From publication PMC12711577
Results are given in words; binding and its absence hold for the method and conditions named. A result given as binding can be weak or reduced; the word gives no strength.

Chains of the proteins cited; added tags and fusions are not shown. Lines headed by an entry give the natural chain unless they say otherwise; changes in a name come on top.
UniProt F4IMJ9: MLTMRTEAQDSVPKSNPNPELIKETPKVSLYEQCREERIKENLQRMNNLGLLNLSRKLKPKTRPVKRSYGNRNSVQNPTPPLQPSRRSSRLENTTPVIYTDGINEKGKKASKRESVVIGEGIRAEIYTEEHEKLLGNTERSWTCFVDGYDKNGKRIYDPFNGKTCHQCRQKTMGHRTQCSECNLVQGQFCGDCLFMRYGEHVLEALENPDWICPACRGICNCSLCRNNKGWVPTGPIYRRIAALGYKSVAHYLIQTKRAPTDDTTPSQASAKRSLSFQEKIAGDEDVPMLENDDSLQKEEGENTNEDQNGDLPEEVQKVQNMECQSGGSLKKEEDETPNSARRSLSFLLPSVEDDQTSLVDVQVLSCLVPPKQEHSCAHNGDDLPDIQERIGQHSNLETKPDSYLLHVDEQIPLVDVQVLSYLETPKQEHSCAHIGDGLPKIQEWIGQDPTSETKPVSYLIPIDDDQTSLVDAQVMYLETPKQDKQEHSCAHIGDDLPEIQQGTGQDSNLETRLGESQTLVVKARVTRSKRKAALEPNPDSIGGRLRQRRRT

How the values were obtained:
[1] = biological target: DECREASE IN DNA …ON 1 (DDM1), recombinant (Arabidopsis thaliana) (UniProt Q9XFH4); assay: pull-down; in vitro pulldown of recombinant CDCA7α and CDCA7β with DDM1, detected via western blot; three replicates; both purified
[2] = biological target: DECREASE IN DNA …ON 1 (DDM1), recombinant (Arabidopsis thaliana) (UniProt Q9XFH4); assay: pull-down; in vitro pulldown of recombinant CDCA7α and CDCA7β with DDM1 at 150 mM NaCl (more restrictive salt); two pulldowns with different DDM1 tags; both purified

With “CELL DIVISION CYCLE-ASSOCIATED PROTEIN 7 beta (CDCA7β), recombinant (from UniProt F4IMJ9)” the binding [1] was “binds” and the binding [2] was “binds”.
